These results are taken from EP3694851B1, “ENVIRONMENTALLY DEGRADABLE QUINOLONE ANTIBIOTICS HAVING A HEMIAMINAL STRUCTURAL UNIT” (priority 2017, dated 2019).

This series in a line: Abiotic hydrolysis (pH-dependent, phosphate-buffered saline, HPLC). As to conditions: chosen pH conditions (pH 6, pH 7,4 at 37°C; pH 9 at room temperature; 28 days). Here is the method:
Der pH-Wert wurde auf pH 6, pH 7,4 oder pH 9 eingestellt. Die Ansätze wurden bei 37 °C für pH 6 und 7,4 und bei Raumtemperatur für pH 9 unter Schütteln (250 rpm) für 28 Tage inkubiert. An Tag 0, 1, 7, 14, 21 und 28 wurden Proben (700µL) für die HPLC Analyse entnommen. Der Quotient der Ausgangskonzentration co durch die Konzentration am jeweiligen Zeitpunkt (ct) wurde kalkuliert und als natürlicher Logarithmus gegen die Inkubationszeit aufgetragen.
Eine NUCLEODUR® RP-C18 (CC 125/4 100-5µm C18 ec) Säule und mobile Phasen bestehend aus 0.1 % Ameisensäure in hochreinem Wasser (CH2O2: Solution A) and 100 % Acetonitril (CH3CN: Solution B) wurden verwendet. Die Flußrate wurde auf 0.5 mL min^-1 eingestellt. Die Temperatur des Säulenofens wurde auf 25 °C eingestellt und das Injektionsvolumen betrug 10 µL. […] Die Testsubstanzen wurden durch einen UV/Vis Detektor bei 270 nm detektiert. Die Fließgradientenmethode wurde angewendet wie in Tabelle 1 aufgelistet. Tabelle 1 : Fließgradientenbedingungen zur chromatographischen Analyse der Testsubstanzen

Molecules are shown by their SMILES.

In the case of `O=C(O)c1cn(C2CC2)c2cc(N3CCNCC3)c(F)cc2c1=O` [Ciprofloxacin, reference compound], the “Instabilität unter den gewählten pH-Bedingungen” value is given as “Weder das verbleibende Fragment noch die Ausgangssubstanz Ciprofloxacin waren unter den gewählten pH-Bedingungen instabil”.
